For orientation: AC50 means the midpoint of the concentration-response curve, whichever way the signal moves.

Some of the results follow. These are further read-outs of the screen, such as a control signal, another cell line or another target. No call is given for them. Most of these compounds were active or inconclusive in the main read-out, so they are no random draw. Potencies come from curve fits of mixed quality, noted in brackets.

This assay in a line: qHTS Assay to Find Inhibitors of Chronic Active B-Cell Receptor Signaling. The note with it: ABC-DLBCL IkBa-CBG/CBR reporter, luminescence ratio (green luciferase fused to IkBa over red control in TMD8 lymphoma cells), 4 h. The method in brief: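 TMD8 human ABC-DLBCL cells with doxycycline-inducible IκBα–green luciferase fusion and unfused red luciferase, in 0.5% FBS medium; compounds up to 46 uM, 4 h at 37C. Green/red luminescence ratio, filter-overlap corrected, fitted to concentration-response curves.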
For orientation: qHTS replaces the single test concentration by a dilution series.

Setting [1] is: measured here: CBR red luminescence, cell number.

Turning to `CN(C)CCNC(=O)C(=O)C1C(=O)Nc2ccccc21` (stereo not drawn), under setting [1], the AC50 was 14.1 µM [falling, single point]. Still for that read-out and setting: the result for `CC(=O)c1cccc(NC(=O)CSc2nc(C3CC3)nc3ccccc23)c1` reads 2.51 µM [falling, partial curve, poor fit].

For the compound `CSc1ccc(C2NC(=O)c3c(sc4c3CCN(C)C4)N2)cc1` (stereo not drawn), under setting [1], the AC50 was 0.731 µM [rising, full curve, poor fit]. Regarding `Cc1cc(C(=O)NNC(=O)c2cccc(N(C)C)c2)c(C)o1`, the AC50 under setting [1] was 11.2 µM [falling, partial curve, poor fit]. Still for that read-out and setting: the result for `O=C(Nc1cccn2ncnc12)c1ccccc1` reads 10 µM [falling, partial curve, poor fit].

Consider `CN(C1=NC(=O)C(CC(=O)Nc2ccc(Br)cc2)S1)c1ccc(O)cc1` (stereo not drawn), for which, under setting [1], the AC50 was 29.1 µM [falling, single point].

As to `Cc1nnc2sc(-c3ccc(NC(=O)CSc4ccc(Cl)cc4)cc3)nn12`, the AC50 under setting [1] is 1.46 µM [falling, partial curve, poor fit].

On to `Cc1ccccc1OCc1nc2ccccc2c(=O)n1/N=C/c1cccc([N+](=O)[O-])c1`, for which the AC50 under setting [1] was 0.651 µM [falling, full curve, poor fit].

For `Cc1cccc(N2CCN(S(=O)(=O)c3ccc4c(c3)CCN4C(=O)CCC(=O)O)CC2C)c1` (stereo not drawn), the AC50 under setting [1] is 29.1 µM [rising, single point].

Regarding `CCCCNS(=O)(=O)c1ccc(NC(=O)c2cccs2)cc1`, the AC50 under setting [1] is 28.2 µM [falling, single point]. As to `CCn1cc(/C=C/C(=O)Nc2ccn(Cc3c(F)c(F)c(F)c(F)c3F)n2)cn1`, the concentration at half-maximal activity (AC50) under setting [1] is 23.1 µM [falling, single point]. Consider `COc1ccc(NC(=O)c2cccc(Cl)c2)c[n+]1[O-]`, for which the AC50 under setting [1] was 2.82 µM [rising, full curve, poor fit]. In the case of `CCCCN(CC)C(=S)Nc1ccc2nc3n(c(=O)c2c1)CCCCC3`, under setting [1], the AC50 was 20.6 µM [rising, partial curve, poor fit]. For `C[C@@H]1C[C@H]2[C@@H]3C[C@H](F)C4=CC(=O)C=C[C@]4(C)[C@@]3(F)[C@@H](O)C[C@]2(C)[C@@]1(O)C(=O)CO`, the AC50 runs as follows: under setting [1], 0.00411 µM [rising, full curve, poor fit]; (measured here: IkBa-CBG green luminescence) 5.17 µM [falling, full curve, poor fit]. With `O=C(COC(=O)c1cccnc1Cl)NCCc1ccccc1`, under setting [1], the AC50 is 16.4 µM [rising, single point]. The same measure, in the same setting: the result for `Cc1ccc(-n2c(CC#N)n[nH]c2=S)c(C)c1` reads 35.5 µM [rising, single point]; that for `CCn1c(CNC(=O)c2ccc(OC)cc2)nnc1SCC(=O)c1ccccc1`, 2.91 µM [falling, partial curve, poor fit].

The values are drawn from PubChem BioAssay AID493014 (National Center for Advancing Translational Sciences (NCATS), 2011).
